Assay results: the supplement of paper PMC10849652
The list shows a part of the results.

By UniProt entry, the sequences of proteins in these tests, tags left out. Where a name states a change or a piece, a line headed by the entry shows the natural chain unless it says otherwise.
UniProt Q06265, whole entry, looked up: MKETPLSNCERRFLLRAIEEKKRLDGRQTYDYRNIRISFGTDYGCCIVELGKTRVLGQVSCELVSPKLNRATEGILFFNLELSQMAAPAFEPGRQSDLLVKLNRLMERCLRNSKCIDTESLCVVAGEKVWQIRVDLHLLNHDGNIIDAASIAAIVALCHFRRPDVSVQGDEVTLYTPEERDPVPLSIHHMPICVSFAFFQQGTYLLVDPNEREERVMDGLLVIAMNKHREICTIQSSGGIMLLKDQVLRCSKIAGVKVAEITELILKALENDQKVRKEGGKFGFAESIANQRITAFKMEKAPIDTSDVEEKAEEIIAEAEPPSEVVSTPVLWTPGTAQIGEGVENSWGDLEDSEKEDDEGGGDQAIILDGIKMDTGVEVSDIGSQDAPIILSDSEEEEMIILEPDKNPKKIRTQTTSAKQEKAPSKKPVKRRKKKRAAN
UniProt Q01780: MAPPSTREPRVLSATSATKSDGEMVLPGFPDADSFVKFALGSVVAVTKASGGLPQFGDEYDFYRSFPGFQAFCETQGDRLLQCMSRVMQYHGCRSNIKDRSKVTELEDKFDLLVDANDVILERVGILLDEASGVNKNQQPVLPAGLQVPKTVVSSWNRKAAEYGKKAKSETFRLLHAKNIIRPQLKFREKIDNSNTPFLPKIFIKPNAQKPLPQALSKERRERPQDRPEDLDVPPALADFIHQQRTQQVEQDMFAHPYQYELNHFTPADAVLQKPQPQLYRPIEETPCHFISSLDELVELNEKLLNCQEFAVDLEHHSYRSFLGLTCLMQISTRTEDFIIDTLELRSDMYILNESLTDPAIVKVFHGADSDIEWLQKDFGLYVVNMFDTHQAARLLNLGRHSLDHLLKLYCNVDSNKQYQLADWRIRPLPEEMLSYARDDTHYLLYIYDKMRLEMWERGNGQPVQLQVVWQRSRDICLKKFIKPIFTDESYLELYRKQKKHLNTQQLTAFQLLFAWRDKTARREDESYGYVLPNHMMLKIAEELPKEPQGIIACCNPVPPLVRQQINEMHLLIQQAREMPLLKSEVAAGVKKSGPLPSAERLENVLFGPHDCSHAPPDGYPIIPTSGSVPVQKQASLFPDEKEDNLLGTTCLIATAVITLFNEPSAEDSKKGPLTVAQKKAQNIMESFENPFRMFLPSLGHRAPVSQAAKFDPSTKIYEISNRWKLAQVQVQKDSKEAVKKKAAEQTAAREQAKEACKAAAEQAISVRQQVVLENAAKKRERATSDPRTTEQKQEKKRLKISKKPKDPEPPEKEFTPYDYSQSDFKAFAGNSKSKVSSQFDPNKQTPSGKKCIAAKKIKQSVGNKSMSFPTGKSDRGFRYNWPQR
UniProt Q01844: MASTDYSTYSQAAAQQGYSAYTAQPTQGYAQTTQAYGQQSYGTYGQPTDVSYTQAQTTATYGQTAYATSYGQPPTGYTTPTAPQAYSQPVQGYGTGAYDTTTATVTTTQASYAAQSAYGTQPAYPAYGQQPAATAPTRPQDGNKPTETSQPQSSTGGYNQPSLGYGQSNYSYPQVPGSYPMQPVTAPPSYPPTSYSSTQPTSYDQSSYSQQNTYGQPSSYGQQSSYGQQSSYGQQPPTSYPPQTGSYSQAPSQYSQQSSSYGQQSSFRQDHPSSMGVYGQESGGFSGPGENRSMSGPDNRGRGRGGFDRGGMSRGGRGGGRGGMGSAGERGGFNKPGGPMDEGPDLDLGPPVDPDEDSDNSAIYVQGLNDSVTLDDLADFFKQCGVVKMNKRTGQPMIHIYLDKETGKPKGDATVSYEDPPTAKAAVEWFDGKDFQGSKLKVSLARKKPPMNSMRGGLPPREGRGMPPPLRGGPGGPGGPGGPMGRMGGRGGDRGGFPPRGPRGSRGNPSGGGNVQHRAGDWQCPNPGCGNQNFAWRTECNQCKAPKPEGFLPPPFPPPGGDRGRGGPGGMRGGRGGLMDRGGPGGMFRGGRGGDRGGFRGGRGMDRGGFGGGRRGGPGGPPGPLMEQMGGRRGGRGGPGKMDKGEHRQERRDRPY
UniProt Q5W0V3: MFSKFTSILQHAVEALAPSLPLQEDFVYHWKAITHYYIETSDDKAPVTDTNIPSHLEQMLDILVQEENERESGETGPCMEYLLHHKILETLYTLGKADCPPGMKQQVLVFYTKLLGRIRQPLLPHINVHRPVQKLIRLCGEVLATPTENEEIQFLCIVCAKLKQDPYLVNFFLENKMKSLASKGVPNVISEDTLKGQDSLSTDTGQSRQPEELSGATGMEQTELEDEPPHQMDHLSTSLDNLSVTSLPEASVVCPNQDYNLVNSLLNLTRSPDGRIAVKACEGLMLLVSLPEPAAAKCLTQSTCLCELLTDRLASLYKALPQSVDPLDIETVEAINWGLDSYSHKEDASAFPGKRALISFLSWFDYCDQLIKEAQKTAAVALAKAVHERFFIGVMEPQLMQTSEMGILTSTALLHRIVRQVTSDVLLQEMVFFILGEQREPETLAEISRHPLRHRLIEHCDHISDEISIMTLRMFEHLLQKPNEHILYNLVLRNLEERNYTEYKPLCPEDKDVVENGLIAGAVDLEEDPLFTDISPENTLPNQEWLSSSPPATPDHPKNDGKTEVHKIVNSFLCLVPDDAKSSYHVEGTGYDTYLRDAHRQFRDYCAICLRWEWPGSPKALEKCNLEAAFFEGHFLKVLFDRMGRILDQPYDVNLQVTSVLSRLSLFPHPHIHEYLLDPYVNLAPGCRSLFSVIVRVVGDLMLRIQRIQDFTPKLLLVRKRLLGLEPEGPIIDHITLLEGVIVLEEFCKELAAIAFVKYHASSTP
UniProt Q9UI08, whole entry, looked up: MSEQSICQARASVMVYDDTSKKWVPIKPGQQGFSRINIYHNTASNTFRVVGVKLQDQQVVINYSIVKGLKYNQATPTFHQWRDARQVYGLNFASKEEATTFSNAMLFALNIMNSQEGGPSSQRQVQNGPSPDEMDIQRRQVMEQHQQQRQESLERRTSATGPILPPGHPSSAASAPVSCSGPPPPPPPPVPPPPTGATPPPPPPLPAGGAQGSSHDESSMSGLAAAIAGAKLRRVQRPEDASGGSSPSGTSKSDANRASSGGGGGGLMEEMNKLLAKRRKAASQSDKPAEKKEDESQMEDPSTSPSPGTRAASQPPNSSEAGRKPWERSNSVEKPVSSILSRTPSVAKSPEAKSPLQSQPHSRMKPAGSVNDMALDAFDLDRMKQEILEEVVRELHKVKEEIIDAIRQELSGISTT
UniProt Q16134: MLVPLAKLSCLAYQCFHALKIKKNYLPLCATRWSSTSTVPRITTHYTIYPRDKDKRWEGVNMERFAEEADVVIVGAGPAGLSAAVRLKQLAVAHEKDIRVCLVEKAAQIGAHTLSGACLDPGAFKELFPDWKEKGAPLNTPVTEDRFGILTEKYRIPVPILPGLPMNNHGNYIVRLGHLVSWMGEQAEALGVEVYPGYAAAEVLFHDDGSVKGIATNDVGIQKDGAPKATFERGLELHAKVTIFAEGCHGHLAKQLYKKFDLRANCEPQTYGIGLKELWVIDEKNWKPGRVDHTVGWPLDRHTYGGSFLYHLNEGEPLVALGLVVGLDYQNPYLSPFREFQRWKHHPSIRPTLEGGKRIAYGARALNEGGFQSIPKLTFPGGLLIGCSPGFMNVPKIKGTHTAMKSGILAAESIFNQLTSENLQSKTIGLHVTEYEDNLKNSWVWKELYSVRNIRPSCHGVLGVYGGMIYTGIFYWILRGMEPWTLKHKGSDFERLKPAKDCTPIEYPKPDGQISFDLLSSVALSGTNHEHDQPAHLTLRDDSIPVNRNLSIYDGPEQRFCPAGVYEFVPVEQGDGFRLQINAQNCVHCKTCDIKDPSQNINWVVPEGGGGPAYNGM
UniProt Q96PL5: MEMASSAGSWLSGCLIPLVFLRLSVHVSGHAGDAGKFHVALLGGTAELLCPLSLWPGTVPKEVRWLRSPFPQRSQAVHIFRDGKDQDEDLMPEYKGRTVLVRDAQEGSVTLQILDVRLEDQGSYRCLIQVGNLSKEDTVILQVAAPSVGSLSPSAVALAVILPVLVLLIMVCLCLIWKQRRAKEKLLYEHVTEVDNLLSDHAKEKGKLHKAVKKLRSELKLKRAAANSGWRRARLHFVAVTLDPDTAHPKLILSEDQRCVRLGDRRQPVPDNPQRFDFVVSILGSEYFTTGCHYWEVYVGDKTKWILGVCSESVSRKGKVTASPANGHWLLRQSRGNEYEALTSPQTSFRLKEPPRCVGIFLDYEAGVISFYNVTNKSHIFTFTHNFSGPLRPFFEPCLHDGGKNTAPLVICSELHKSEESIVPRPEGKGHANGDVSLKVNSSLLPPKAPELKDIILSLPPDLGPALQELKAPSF
UniProt Q9H098: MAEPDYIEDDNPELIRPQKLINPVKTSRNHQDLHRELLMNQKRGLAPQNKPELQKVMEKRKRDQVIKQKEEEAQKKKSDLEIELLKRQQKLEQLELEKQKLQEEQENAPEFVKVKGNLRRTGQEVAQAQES
UniProt P13804: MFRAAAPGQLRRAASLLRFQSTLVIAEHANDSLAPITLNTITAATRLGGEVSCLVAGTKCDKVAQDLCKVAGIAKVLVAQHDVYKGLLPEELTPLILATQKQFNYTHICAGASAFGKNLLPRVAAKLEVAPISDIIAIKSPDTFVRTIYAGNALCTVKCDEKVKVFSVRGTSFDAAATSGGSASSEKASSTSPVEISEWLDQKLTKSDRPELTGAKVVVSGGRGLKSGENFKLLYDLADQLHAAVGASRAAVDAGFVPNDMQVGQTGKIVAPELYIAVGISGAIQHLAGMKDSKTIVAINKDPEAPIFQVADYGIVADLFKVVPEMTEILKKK
UniProt Q0VG06: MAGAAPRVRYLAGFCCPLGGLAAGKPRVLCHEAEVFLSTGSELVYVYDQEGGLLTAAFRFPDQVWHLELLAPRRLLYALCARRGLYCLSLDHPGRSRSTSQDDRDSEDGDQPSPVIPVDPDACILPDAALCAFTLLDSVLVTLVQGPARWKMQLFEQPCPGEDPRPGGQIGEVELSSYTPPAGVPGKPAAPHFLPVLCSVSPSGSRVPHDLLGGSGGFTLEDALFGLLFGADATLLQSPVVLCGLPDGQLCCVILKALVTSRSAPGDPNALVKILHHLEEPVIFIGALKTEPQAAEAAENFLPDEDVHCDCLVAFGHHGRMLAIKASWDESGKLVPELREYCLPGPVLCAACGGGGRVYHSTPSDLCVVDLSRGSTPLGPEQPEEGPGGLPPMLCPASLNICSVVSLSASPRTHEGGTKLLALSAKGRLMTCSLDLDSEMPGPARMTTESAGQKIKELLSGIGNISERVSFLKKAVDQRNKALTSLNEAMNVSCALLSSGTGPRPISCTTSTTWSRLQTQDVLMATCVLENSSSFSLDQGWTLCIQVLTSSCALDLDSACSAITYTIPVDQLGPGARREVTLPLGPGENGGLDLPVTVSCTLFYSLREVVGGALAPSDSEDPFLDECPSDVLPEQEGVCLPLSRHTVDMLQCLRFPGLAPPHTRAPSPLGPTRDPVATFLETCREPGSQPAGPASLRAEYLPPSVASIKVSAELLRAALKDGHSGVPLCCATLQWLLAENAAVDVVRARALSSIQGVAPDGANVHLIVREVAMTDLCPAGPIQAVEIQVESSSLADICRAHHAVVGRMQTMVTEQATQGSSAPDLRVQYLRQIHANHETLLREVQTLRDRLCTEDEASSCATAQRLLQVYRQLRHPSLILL
UniProt Q96A26: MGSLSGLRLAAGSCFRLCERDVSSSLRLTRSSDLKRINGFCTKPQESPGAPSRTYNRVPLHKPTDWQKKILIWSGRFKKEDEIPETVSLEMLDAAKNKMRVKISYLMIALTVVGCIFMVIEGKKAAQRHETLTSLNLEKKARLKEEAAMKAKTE
UniProt Q6IPR1: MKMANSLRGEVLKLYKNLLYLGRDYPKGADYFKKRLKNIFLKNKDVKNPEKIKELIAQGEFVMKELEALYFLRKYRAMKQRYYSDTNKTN
UniProt Q96CS3: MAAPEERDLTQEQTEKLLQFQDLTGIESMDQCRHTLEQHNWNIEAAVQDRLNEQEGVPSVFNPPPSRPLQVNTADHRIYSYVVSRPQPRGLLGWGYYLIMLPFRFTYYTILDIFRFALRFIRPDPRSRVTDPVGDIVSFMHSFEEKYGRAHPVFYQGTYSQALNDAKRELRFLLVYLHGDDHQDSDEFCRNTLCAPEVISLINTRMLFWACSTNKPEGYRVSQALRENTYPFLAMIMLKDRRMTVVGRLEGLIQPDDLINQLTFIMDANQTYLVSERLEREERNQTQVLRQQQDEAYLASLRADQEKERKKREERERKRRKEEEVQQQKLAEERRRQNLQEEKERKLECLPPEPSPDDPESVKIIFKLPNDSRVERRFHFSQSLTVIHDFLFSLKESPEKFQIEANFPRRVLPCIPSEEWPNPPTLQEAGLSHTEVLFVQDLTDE
UniProt O95571: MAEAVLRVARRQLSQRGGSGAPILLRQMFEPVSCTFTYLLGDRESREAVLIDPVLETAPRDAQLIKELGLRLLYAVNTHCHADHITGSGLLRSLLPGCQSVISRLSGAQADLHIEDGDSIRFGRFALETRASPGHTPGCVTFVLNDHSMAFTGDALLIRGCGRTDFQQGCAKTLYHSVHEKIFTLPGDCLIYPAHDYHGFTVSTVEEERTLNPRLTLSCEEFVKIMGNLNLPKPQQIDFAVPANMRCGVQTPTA

Columns and labels:
Assay in all cases: log2 fold change, soluble protein after heating vs DMSO (PISA); higher = thermal stabilisation; K562 lysate, 10 uM; active = over 0.2 and 3.5 SD of the protein, either way, in both replicates (recomputed)
nilotinib = compound: Cc1cn(-c2cc(NC(=O)c3ccc(C)c(Nc4nccc(-c5cccnc5)n4)c3)cc(C(F)(F)F)c2)cn1 [nilotinib]
How it was run: (§1)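 Dounce homogenisation of K562 pellets in PBS pH 7.4 with 1 mM MgCl2 produced a crude extract, used at 1 mg/mL protein. Exposure to 10 μM compound lasted 30 min, and aliquots were then heated for 3 min across 48°C-58°C, pooled and brought to 0.5% NP-40 at 4°C. The supernatant after 21,000xg for 90 min was quantified by TMTpro 16plex LC-MS/MS with channel sums equalised. Duplicate values are given as log-two fold change in thermal stability relative to solvent controls.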

[1] = compound: Cc1nc(Nc2n[nH]c3c2CN(C(=O)N[C@H](CN(C)C)c2ccccc2)C3(C)C)c2sccc2n1
How it was run: as §1

dasatinib = compound: Cc1nc(Nc2ncc(C(=O)Nc3c(C)cccc3Cl)s2)cc(N2CCN(CCO)CC2)n1 [dasatinib]
How it was run: as §1

[2] = compound: Cc1ncc(-c2ccnc(Nc3ccc(S(C)(=O)=O)cc3)n2)n1C(C)C
How it was run: as §1

[3] = compound: Cn1cc(-c2ccc3c(c2)CCN3C(=O)Cc2cccc(C(F)(F)F)c2)c2c(N)ncnc21
How it was run: as §1

quisinostat = compound: Cn1cc(CNCC2CCN(c3ncc(C(=O)NO)cn3)CC2)c2ccccc21 [quisinostat]
How it was run: as §1

tipifarnib = compound: Cn1cncc1[C@@](N)(c1ccc(Cl)cc1)c1ccc2c(c1)c(-c1cccc(Cl)c1)cc(=O)n2C [tipifarnib]
How it was run: as §1

[4] = compound: NC(=O)Nc1cc(-c2cccc(F)c2)sc1C(=O)N[C@H]1CCCNC1
How it was run: as §1

[5] = compound: NC(=O)c1cnc(N[C@@H]2CCCC[C@@H]2N)nc1Nc1cccc(-n2nccn2)c1
How it was run: as §1

[6] = compound: NC1(c2ccc(-c3nc4ccn5c(=O)[nH]nc5c4cc3-c3ccccc3)cc2)CCC1
How it was run: as §1

Row | Target | log2 fold change (nilotinib) | log2 fold change [1] | log2 fold change (dasatinib) | log2 fold change [2] | log2 fold change [3] | log2 fold change (quisinostat) | log2 fold change (tipifarnib) | log2 fold change [4] | log2 fold change [5] | log2 fold change [6]
1 | EXT2 isoform 3 (UniProt Q93063) | inactive: 0.085 | inactive: 0.101 | inactive: 0.091 | inactive: 0.007 | inactive: 0.111 | inactive: 0.003 | inactive: -0.048 | inactive: 0.012 | inactive: -0.165 | inactive: -0.028
2 | FAM50A (UniProt Q14320) | inactive: -0.012 | inactive: 0.032 | inactive: 0.025 | inactive: 0.001 | inactive: -0.009 | inactive: 0.039 | inactive: 0.01 | inactive: -0.053 | inactive: 0.012 | inactive: 0.015
3 | EXOSC9 (UniProt Q06265) | inactive: -0.002 | inactive: 0.015 | inactive: -0.026 | inactive: 0.035 | inactive: 0.005 | inactive: 0 | inactive: -0.013 | inactive: -0.023 | inactive: -0.008 | inactive: -0.018
4 | EXOSC10 (UniProt Q01780) | inactive: 0.012 | inactive: 0.002 | inactive: 0.034 | inactive: -0.001 | inactive: -0.006 | inactive: -0.05 | inactive: -0.016 | inactive: 0.057 | inactive: -0.002 | inactive: -0.052
5 | ETV6 (UniProt P41212) | inactive: 0.091 | inactive: -0.187 | inactive: 0.067 | inactive: -0.054 | inactive: 0.038 | inactive: -0.166 | inactive: 0.186 | inactive: 0.194 | inactive: 0.001 | 
6 | FAM83D (UniProt Q9H4H8) | inactive: -0.042 | inactive: 0.004 | inactive: -0.026 | inactive: 0.008 | inactive: -0.033 | inactive: -0.061 | inactive: -0.02 | inactive: -0.019 | inactive: 0.05 | inactive: 0.01
7 | EWSR1 isoform 5 (UniProt Q01844) | active: -0.766 | inactive: 0.019 | inactive: 0.004 | inactive: 0.036 | inactive: -0.049 | inactive: -0.025 | inactive: 0.082 | inactive: 0.013 | inactive: -0.002 | inactive: 0.024
8 | FAM135A (UniProt Q9P2D6) | inactive: 0.122 | inactive: -0.173 | inactive: 0.083 | inactive: 0.19 | inactive: 0.093 | inactive: -0.029 | inactive: 0.042 | inactive: -0.084 |  | 
9 | FAH isoform 2 (UniProt P16930) | inactive: -0.031 | inactive: 0.024 | inactive: 0.127 | inactive: -0.03 | inactive: -0.062 | inactive: -0.078 | inactive: 0.018 | inactive: -0.181 | inactive: -0.084 | 
10 | FAM160B1 (UniProt Q5W0V3) | inactive: 0.022 | inactive: 0.009 | inactive: -0.023 | inactive: -0.006 | inactive: 0.031 | inactive: -0.096 | inactive: 0.006 | inactive: 0.001 | inactive: -0.003 | inactive: -0.034
11 | EVL isoform 2 (UniProt Q9UI08) | inactive: 0.178 | inactive: -0.043 | inactive: 0.082 | inactive: -0.084 | inactive: 0.058 | inactive: -0.015 | inactive: -0.01 | inactive: 0.007 | inactive: -0.006 | inactive: 0.067
12 | EXOSC4 (UniProt Q9NPD3) | inactive: 0.005 | inactive: 0.029 | inactive: 0.058 | inactive: -0.024 | inactive: 0.006 | inactive: -0.031 | inactive: 0.025 | inactive: 0.043 | inactive: -0.026 | inactive: -0.057
13 | FAM126A (UniProt Q9BYI3) | inactive: 0.027 | inactive: 0.041 | inactive: -0.074 | inactive: -0.006 | inactive: 0.025 | inactive: -0.13 | inactive: -0.069 | inactive: 0.028 | inactive: 0.017 | inactive: -0.119
14 | ETFDH (UniProt Q16134) | inactive: -0.011 | inactive: -0.004 | inactive: -0.017 | inactive: 0.026 | inactive: -0.006 | inactive: 0.032 | inactive: 0.022 | inactive: -0.003 | inactive: 0.021 | inactive: -0.008
15 | ERMAP (UniProt Q96PL5) | inactive: -0.07 | inactive: -0.009 | inactive: -0.04 | inactive: 0.035 | inactive: 0.024 | inactive: 0.01 | inactive: 0.075 | inactive: 0.041 | inactive: -0.065 | inactive: -0.037
16 | FAM117B (UniProt Q6P1L5) | inactive: -0.067 | inactive: -0.044 | inactive: -0.073 | inactive: -0.054 | inactive: -0.28 | inactive: -0.046 | inactive: -0.088 | inactive: 0.09 | inactive: 0.074 | inactive: 0.148
17 | FAM107B isoform 2 (UniProt Q9H098) | inactive: -0.198 | inactive: 0.038 | inactive: 0.079 | inactive: -0.101 | inactive: 0.096 | inactive: -0.025 | inactive: -0.106 | inactive: 0.074 | inactive: -0.004 | inactive: -0.082
18 | ETFA (UniProt P13804) | inactive: -0.014 | inactive: -0.011 | inactive: -0.158 | inactive: -0.003 | inactive: 0.014 | inactive: 0.002 | inactive: 0.008 | inactive: -0.015 | inactive: 0.009 | inactive: 0.005
19 | F5 (UniProt P12259) | inactive: 0.099 | inactive: -0.097 | inactive: -0.003 | inactive: -0.091 | inactive: -0.01 | inactive: 0.008 | inactive: -0.175 | inactive: 0.022 | inactive: 0.041 | inactive: 0.024
20 | EXOC5 (UniProt O00471) | inactive: 0.008 | inactive: -0.025 | inactive: -0.063 | inactive: -0.003 | inactive: 0.047 | inactive: -0.044 | inactive: 0.006 | inactive: 0.014 | inactive: 0.01 | inactive: 0.002
21 | FAAP100 (UniProt Q0VG06) | inactive: -0.013 | inactive: 0.033 | inactive: 0.057 | inactive: -0.037 | inactive: -0.025 | inactive: -0.041 | inactive: 0.071 | inactive: -0.021 | inactive: -0.03 | inactive: -0.025
22 | FAM162A (UniProt Q96A26) | inactive: 0.062 | inactive: 0.001 | inactive: 0.056 | inactive: -0.03 | inactive: -0.003 | inactive: 0.082 | inactive: 0.087 | inactive: -0.027 | inactive: -0.039 | inactive: 0.032
23 | ETFRF1 (UniProt Q6IPR1) | inactive: -0.038 | inactive: 0.032 | inactive: -0.01 | inactive: -0.02 | inactive: 0.062 | inactive: 0.088 | inactive: 0.117 | inactive: -0.028 | inactive: 0.071 | inactive: 0.046
24 | FAM3C (UniProt Q92520) | inactive: 0.034 | inactive: -0.023 | inactive: -0.055 | inactive: -0.02 | inactive: -0.03 | inactive: 0.039 | inactive: -0.087 | inactive: -0.044 | inactive: 0.011 | inactive: -0.024
25 | FAF2 (UniProt Q96CS3) | inactive: 0.016 | inactive: -0.068 | inactive: -0.016 | inactive: 0.01 | inactive: 0.037 | inactive: -0.051 | inactive: -0.056 | inactive: 0.027 | inactive: -0.023 | inactive: 0.016
26 | ESF1 (UniProt Q9H501) | inactive: 0.002 | inactive: 0.004 | inactive: 0.022 | inactive: 0.021 | inactive: 0.002 | inactive: 0.024 | inactive: -0.015 | inactive: -0.003 | inactive: 0.058 | inactive: 0.037
27 | EXOSC8 (UniProt Q96B26) | inactive: 0 | inactive: 0.017 | inactive: 0.001 | inactive: -0.045 | inactive: -0.022 | inactive: -0.052 | inactive: -0.039 | inactive: -0.019 | inactive: -0.002 | inactive: -0.007
28 | FAM120B (UniProt Q96EK7) | inactive: -0.067 | inactive: -0.017 | inactive: -0.033 | inactive: -0.008 | inactive: 0.017 | inactive: -0.062 | inactive: 0.05 | inactive: 0.015 | inactive: -0.029 | inactive: -0.048
29 | FADS3 (UniProt Q9Y5Q0) | inactive: -0.091 | inactive: 0.216 | inactive: 0.102 | inactive: 0.166 | inactive: -0.061 | inactive: -0.019 | inactive: -0.081 | inactive: -0.008 | inactive: -0.069 | inactive: 0.07
30 | ETHE1 (UniProt O95571) | active: 0.25 | inactive: -0.124 | inactive: -0.037 | inactive: 0.095 | inactive: -0.046 | inactive: -0.015 | inactive: -0.181 | inactive: 0.055 | inactive: 0 | inactive: -0.002

From no. 8 as far as 9, copied from above:
Row | Target | log2 fold change (nilotinib) | log2 fold change [1] | log2 fold change (dasatinib) | log2 fold change [2] | log2 fold change [3] | log2 fold change (quisinostat) | log2 fold change (tipifarnib) | log2 fold change [4] | log2 fold change [5] | log2 fold change [6]
8 | FAM135A (UniProt Q9P2D6) | inactive: 0.122 | inactive: -0.173 | inactive: 0.083 | inactive: 0.19 | inactive: 0.093 | inactive: -0.029 | inactive: 0.042 | inactive: -0.084 |  | 
9 | FAH isoform 2 (UniProt P16930) | inactive: -0.031 | inactive: 0.024 | inactive: 0.127 | inactive: -0.03 | inactive: -0.062 | inactive: -0.078 | inactive: 0.018 | inactive: -0.181 | inactive: -0.084 | 
